Measured values: patent US20170355777A1 (UNIVERSITY OF LEICESTER, published 2017)
These are yes or no findings as the source states them, for the method shown. Some entries that bind do so weakly or less than the wild type.

How the values were obtained:
[1] = target: T1, glycosylated full length human mucin-like protein (gMLP) secreted by cancer cell lines Panc-1 and A2780 (human); assay: Western blot, summary grade (gMLP secreted from Panc1 and A2780 cell lines)
T1 sequence (chain, glycosylated (highly O-glycosylated; sites not given)): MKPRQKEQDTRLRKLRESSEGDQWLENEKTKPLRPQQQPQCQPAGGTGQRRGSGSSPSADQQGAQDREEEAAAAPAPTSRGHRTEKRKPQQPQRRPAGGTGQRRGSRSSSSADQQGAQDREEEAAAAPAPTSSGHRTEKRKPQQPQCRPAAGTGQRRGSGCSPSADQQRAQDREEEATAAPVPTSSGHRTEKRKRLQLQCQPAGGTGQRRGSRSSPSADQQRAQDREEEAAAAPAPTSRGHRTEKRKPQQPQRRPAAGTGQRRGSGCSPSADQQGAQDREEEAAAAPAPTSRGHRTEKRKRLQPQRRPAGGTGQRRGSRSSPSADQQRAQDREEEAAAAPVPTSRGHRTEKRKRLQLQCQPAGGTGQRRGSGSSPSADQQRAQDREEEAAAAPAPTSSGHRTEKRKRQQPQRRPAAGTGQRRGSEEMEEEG

[2] = target: T1, glycosylated full length human mucin-like protein (gMLP) secreted by cancer cell lines Panc-1 and A2780 (human); assay: dot blot, Panc-1 supernatant (FIG. 5)
[3] = target: T1, glycosylated full length human mucin-like protein (gMLP) secreted by cancer cell lines Panc-1 and A2780 (human); assay: Western blot, concentrated A2780 supernatant (FIG. 8)
[4] = target: T1, glycosylated full length human mucin-like protein (gMLP) secreted by cancer cell lines Panc-1 and A2780 (human); assay: ELISA, plate coated with 1 µg/ml concentrated A2780 supernatant (FIG. 9)
[5] = target: T1, glycosylated full length human mucin-like protein (gMLP) secreted by cancer cell lines Panc-1 and A2780 (human); assay: ELISA test positive with both rMLP and gMLP, summary grade
[6] = target: T1, glycosylated full length human mucin-like protein (gMLP) secreted by cancer cell lines Panc-1 and A2780 (human); assay: dot blot, A2780 supernatant (FIG. 7)
[7] = target: T1, glycosylated full length human mucin-like protein (gMLP) secreted by cancer cell lines Panc-1 and A2780 (human); assay: ELISA, plate coated with 1.0 µg/ml gMLP from concentrated supernatant of ovarian cancer cell line A2789 (FIG. 6)
[8] = target: T1, glycosylated full length human mucin-like protein (gMLP) secreted by cancer cell lines Panc-1 and A2780 (human); assay: dot blot, summary grade (gMLP secreted from Panc1 and A2780 cell lines)
[9] = target: T1, glycosylated full length human mucin-like protein (gMLP) secreted by cancer cell lines Panc-1 and A2780 (human); assay: summary of Example 2 (Western blot, dot blot)
[10] = target: T1, glycosylated full length human mucin-like protein (gMLP) secreted by cancer cell lines Panc-1 and A2780 (human); assay: Western blot (FIG. 8 legend, top panel)
[11] = target: recombinant MLP (rMLP) C-terminal fusion protein: N-terminal histidine tag fused to residues 279-431 of human mucin-like protein (human); assay: dot blot (FIG. 5)
[12] = target: recombinant MLP (rMLP) C-terminal fusion protein: N-terminal histidine tag fused to residues 279-431 of human mucin-like protein (human); assay: ELISA test positive with both rMLP and gMLP, summary grade
[13] = target: T1, glycosylated full length human mucin-like protein (gMLP) secreted by cancer cell lines Panc-1 and A2780 (human); assay: summary of Example 2 (Western blot, dot blot; also ELISA for clones 11 and B)
[14] = target: recombinant MLP (rMLP) C-terminal fusion protein: N-terminal histidine tag fused to residues 279-431 of human mucin-like protein (human); assay: summary of Example 2 (Western blot, dot blot, ELISA)
[15] = target: recombinant MLP (rMLP) C-terminal fusion protein: N-terminal histidine tag fused to residues 279-431 of human mucin-like protein (human); assay: ELISA, plate coated with 10.0 µg/ml rMLP C-terminal protein
[16] = target: recombinant MLP (rMLP) C-terminal fusion protein: N-terminal histidine tag fused to residues 279-431 of human mucin-like protein (human); assay: Western blot (FIG. 8)
[17] = target: recombinant MLP (rMLP) C-terminal fusion protein: N-terminal histidine tag fused to residues 279-431 of human mucin-like protein (human); assay: dot blot (FIG. 7)
[18] = target: recombinant MLP (rMLP) C-terminal fusion protein: N-terminal histidine tag fused to residues 279-431 of human mucin-like protein (human); assay: Western blot (FIG. 8 legend, middle panel)
[19] = target: T1, glycosylated full length human mucin-like protein (gMLP) secreted by cancer cell lines Panc-1 and A2780 (human); assay: Western blot (FIG. 8 legend, middle panel)

Measured: binding

B1: anti-MLP monoclonal antibody αMLP Clone C (hybridoma ATCC PTA-121701) (antibody, IgG1, V domains shown)
VH: DVKLQESGGGLVQPGGSMKLSCVASGFTFSNYWMNWVRQSPEKGLEWVAEIRLKSNNYAINYAESVKGRFTISRDDSKSSVYLDMNNLRAEDTGIYYCTSYYGSSLYYLDYWGQGTTLTVSS
VL: QIVLTQSPVIMSASPGEKVTISCSASSSVSNMYWYQQKPGSSPKAWIYRTSNLASGVPARFSGSGSGTSYSLTISSMEAEDAATYYCHQYQSYPRTFGAGTKLEIK
notes: also called 2(C); mAb clone C
binds: [1] | [2] | [3] | [4] | [5] | [6] | [7] | [8] | [9] | [10]

B2: anti-MLP monoclonal antibody αMLP Clone B (hybridoma ATCC PTA-121700) (antibody, IgG2a, V domains shown)
VH: EVQLQQSGPELVKPGASVKISCKASGYSFTGFYIHWVKQSHVKSLEWIGRIHPYNGAPTYNQNFKDRARLTVHESSSTAYMEFFGLTSEDSAVYYCARERVYYYGSTYEFDFWGQGTTLTVSS
VL: DVLMTQTPLSLPVSLGDQASISCRSGQSIVHSSGVTYLSWYLQKPGQSPKLLIYKVFYRFSGVPDRFSGSGSGTDFTLKISRVEAEDLGVYYCFQGSHVPPTFGTGTKLELK
notes: also called mAb clone B
not listed: [9] | [10]
binds: all other assays above
